# Measured values taken from the supplement of paper PMC3334620.
# In all, about 33,000 sequences were measured (“E-score (-0.5 to 0.5)”: median about -0.016, highest 2% from about 0.3 on). This is one part of the list.
# Biological target: T1, Yer184c (UniProt P39961)
# T1 sequence: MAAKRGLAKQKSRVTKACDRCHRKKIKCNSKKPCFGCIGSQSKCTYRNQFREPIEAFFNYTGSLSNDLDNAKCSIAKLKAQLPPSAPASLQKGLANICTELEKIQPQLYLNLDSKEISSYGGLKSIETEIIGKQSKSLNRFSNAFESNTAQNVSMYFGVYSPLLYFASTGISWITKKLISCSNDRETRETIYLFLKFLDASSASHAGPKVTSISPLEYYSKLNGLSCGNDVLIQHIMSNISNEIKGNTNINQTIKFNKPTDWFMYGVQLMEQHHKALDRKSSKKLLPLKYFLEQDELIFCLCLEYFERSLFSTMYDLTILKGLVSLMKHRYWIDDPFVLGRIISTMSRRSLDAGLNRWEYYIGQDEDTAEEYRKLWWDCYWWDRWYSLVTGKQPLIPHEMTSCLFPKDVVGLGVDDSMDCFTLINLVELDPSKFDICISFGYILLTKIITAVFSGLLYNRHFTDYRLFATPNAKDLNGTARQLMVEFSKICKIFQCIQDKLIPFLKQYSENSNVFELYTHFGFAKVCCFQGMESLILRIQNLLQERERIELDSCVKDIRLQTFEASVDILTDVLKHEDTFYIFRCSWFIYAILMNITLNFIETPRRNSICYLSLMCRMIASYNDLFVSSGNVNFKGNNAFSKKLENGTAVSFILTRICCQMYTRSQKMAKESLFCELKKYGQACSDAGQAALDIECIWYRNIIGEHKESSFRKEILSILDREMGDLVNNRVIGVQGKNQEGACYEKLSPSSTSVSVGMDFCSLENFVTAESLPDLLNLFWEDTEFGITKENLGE
# Assay: PBM E-score (8-mer binding enrichment) (E-score (-0.5 to 0.5)); higher = stronger / more preferred TF binding
# Settings: protein concentration: 100 nM; construct: GST-full length
# Experimental: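 Universal 'all 10-mer' protein binding microarrays (Agilent AMADID 015681) probed with GST-tagged S. cerevisiae TFs (full-length or DBD) made by in vitro transcription/translation (PURExpress), about 100-200 nM. Bound TF was detected with fluorescent anti-GST. Each ungapped 8-mer (which stands for itself and its reverse complement) is scored by the PBM enrichment score (E-score), a modified Wilcoxon-Mann-Whitney statistic from -0.5 to +0.5, computed with the Universal PBM Analysis Suite. Scale: above 0.35 generally sequence-specific binding.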
row,Sequence,PBM E-score
1,CGCATCCA,-0.136
2,AGGCATTA,-0.187
3,CATCGACG,-0.059
4,GGCTGTAA,-0.0316
5,AAATGGCA,0.0142
6,GTAGTATA,0.0407
7,AAGGCTTA,-0.15
8,CATGCTCG,-0.0635
9,CAAAGGGC,-0.223
10,ATGGGACG,-0.243
11,ATTACCTG,-0.0119
12,CCGCAGCA,0.0615
13,CTTTTAAA,0.173
14,AAGGCCGT,0.156
15,AGGCGCCG,0.207
16,AGTGTTAC,0.17
17,ACCGCATG,0.0226
18,ACGCTTGA,0.0312
19,AACGTAAT,-0.0198
20,AGGCTCGC,-0.185
21,CGAAGGAA,0.18
22,ATCGGAGC,0.0876
23,ATAAGGGA,-0.149
24,GAGGGACA,-0.263
25,ATGTTAAT,0.0916

row,Sequence,PBM E-score
1,ATTCTAAA,0.229
2,CCAGCCGC,0.152
3,AGATTAAA,0.282
4,CCATTGAC,-0.166
5,TCCGTTCA,0.175
6,AGAGTACG,0.0239
7,GAGGACCA,-0.198
8,CATAGGAA,-0.0805
9,GGCTATGA,-0.0611
10,TATTTGGA,-0.0743
11,CCCAGACA,-0.117
12,CCACGAGA,-0.0203
13,AGTCCTCC,-0.195
14,GCACTGAC,-0.0589
15,GCCCTGGA,-0.255
16,CCCGATGC,0.0129
17,ACACAAAC,0.086
18,ACACCAGT,-0.263
19,AGAACCCA,-0.157
20,CTAGAGTA,-0.0589
21,ATCAATAG,0.0419
22,CTCCCTCA,-0.119
23,AACCCTTC,-0.15
24,AATTCGTC,0.194
25,AAATGGGG,-0.289

row,Sequence,PBM E-score
1,ATAGGACA,-0.269
2,CCACGTTA,-0.0344
3,ACTATCCA,0.0283
4,CGCGCAAC,-0.0356
5,ATGGACCA,0.00123
6,AATCTAAT,0.0331
7,CGGCGGAA,0.298
8,GTGTGTTA,0.152
9,ATCCGTGC,0.288
10,CATAAAGA,0.264
11,CTACGAAA,0.0184
12,AGCACCAC,-0.112
13,GCCGTGCC,0.222
14,TCAGTACA,0.13
15,AATACCGT,0.188
16,CTCTGACA,0.109
17,ATGTTCCC,-0.107
18,AACTGCAA,0.0848
19,CACCGTGC,-0.0814
20,CCGCGGAA,0.416
21,CCCGGACC,0.149
22,CTTGAAGC,0.0169
23,GAACTCAC,-0.0105
24,ATAGGCGC,-0.0933
25,CCCCGTCA,-0.0936

row,Sequence,PBM E-score
1,ATTCCAGC,-0.0455
2,ACGTATAA,-0.0101
3,ACCCCTAG,-0.252
4,AGTCTTCC,-0.0346
5,CGGATGCA,0.128
6,GAATTTGC,0.13
7,GGTGAGAC,-0.209
8,AGGAAAGC,-0.0785
9,ACTAAAGT,-0.0105
10,CGACAATC,0.0409
11,AGACGTAT,-0.135
12,GGCGCACC,-0.0534
13,CCAAACCA,-0.119
14,AGTGATCA,-0.0276
15,GTTATTAA,0.225
16,AACTGCAG,-0.152
17,AACGCGAG,-0.0244
18,TAGGATCA,-0.0016
19,GACACTTA,-0.0563
20,GCTGCAGA,0.0256
21,AAACACTT,-0.072
22,ATGTCAAA,0.194
23,GCAACCCA,-0.112
24,GCCCCGGA,0.234
25,ACACGCAA,0.0456

row,Sequence,PBM E-score
1,AGTAGTGG,-0.0968
2,CGGGTCTA,0.0467
3,ACTGACCC,-0.0524
4,ACATGTCA,-0.12
5,AGGCGGGC,-0.225
6,AATTAGAA,0.0727
7,ATAAAGGC,-0.0884
8,ACCCGTAC,-0.0295
9,AGAACTCA,-0.0229
10,GGCAACGA,0.156
11,CGGTCTCC,-0.0507
12,ACGATACG,-0.186
13,CGAAGGGA,-0.149
14,CTAGTCCA,-0.119
15,CCCGACCG,0.101
16,GAATCGGA,0.318
17,AGTTTGAT,0.103
18,CAAAGTGA,0.00689
19,CAACCCCA,-0.124
20,CAGACACC,-0.103
21,AGACACCC,-0.121
22,AATCAAGC,-0.0867
23,CAACTTAC,-0.142
24,CTGGCCCA,-0.316
25,AGGTGTCG,-0.211

row,Sequence,PBM E-score
1,AGCCGCTA,-0.0651
2,CATCAGGA,0.215
3,ATATGATA,0.325
4,TCAGAGCA,-0.228
5,AAATTCCA,0.216
6,GCACGGCA,0.166
7,GGGAGGTA,-0.193
8,ACTCAAAT,0.00662
9,ACAACAAC,0.172
10,GACTTAAC,-0.296
11,ACGCTGTG,0.0483
12,AATTAATA,0.407
13,ATCACGTG,0.0978
14,ATAATATA,0.323
15,CGCTCCAG,-0.093
16,GAGTGCGC,-0.0277
17,ACTTATTC,0.0575
18,ACCCGGTC,0.065
19,AAGCTTCG,0.0989
20,TCGTGCAA,0.189
21,CGCATGAC,-0.0474
22,CCGGCTTC,0.307
23,AAGTTGAT,0.0745
24,GAGGGTGC,-0.254
25,CCTCTCTC,-0.249

# Not a retest: entries from further up.
row,Sequence,PBM E-score
14,AGTGATCA,-0.0276
15,GTTATTAA,0.225
16,AACTGCAG,-0.152
17,AACGCGAG,-0.0244
18,TAGGATCA,-0.0016
19,GACACTTA,-0.0563
20,GCTGCAGA,0.0256
21,AAACACTT,-0.072
22,ATGTCAAA,0.194
23,GCAACCCA,-0.112
24,GCCCCGGA,0.234
25,ACACGCAA,0.0456
1,AGTAGTGG,-0.0968
2,CGGGTCTA,0.0467
3,ACTGACCC,-0.0524
4,ACATGTCA,-0.12
5,AGGCGGGC,-0.225
6,AATTAGAA,0.0727
7,ATAAAGGC,-0.0884
8,ACCCGTAC,-0.0295
9,AGAACTCA,-0.0229
10,GGCAACGA,0.156
11,CGGTCTCC,-0.0507
12,ACGATACG,-0.186
13,CGAAGGGA,-0.149
14,CTAGTCCA,-0.119
15,CCCGACCG,0.101
16,GAATCGGA,0.318
17,AGTTTGAT,0.103
18,CAAAGTGA,0.00689
19,CAACCCCA,-0.124
20,CAGACACC,-0.103
21,AGACACCC,-0.121
22,AATCAAGC,-0.0867
23,CAACTTAC,-0.142
24,CTGGCCCA,-0.316
25,AGGTGTCG,-0.211
1,AGCCGCTA,-0.0651
2,CATCAGGA,0.215
3,ATATGATA,0.325
4,TCAGAGCA,-0.228
5,AAATTCCA,0.216
6,GCACGGCA,0.166
7,GGGAGGTA,-0.193
8,ACTCAAAT,0.00662
9,ACAACAAC,0.172

# Further records:

row,Sequence,PBM E-score
1,AGTGTCTG,0.0373
2,ACTGATGC,-0.143
3,CATAATCA,0.121
4,CCTCACGA,-0.214
5,TGCGAAAA,0.233
6,TAACATTA,0.053
7,AGCAAAGC,-0.157
8,GTCCGGGA,0.342
9,ATAATTCC,0.162
10,ACCTACCC,-0.183
11,ATCTCACA,-0.0208
12,CCAATATC,0.102
13,CGTGCGAC,-0.0614
14,TAGGACCA,-0.0434
15,CATCCAAA,-0.0139
16,GGTTCTCA,0.0404
17,CACTTCGG,0.204
18,AGTGGCAG,-0.195
19,ATTATATG,0.265
20,CTCAATGA,-0.0551
21,CCCCGTAG,-0.175
22,AGTAGTTC,0.246
